In patent US7267978, “Chimeric transcriptional regulatory element compositions and methods for increasing prostate-targeted gene expression” (The Regents of the University of California):
Construct, isoform or probe ends are uncertain for at least one entry. For part of these data: No signal at the amounts used counts as a negative. Where a protein sequence is shown, tags need not be part of it.

What was measured:
[1] = biological target: T1, Androgen receptor DNA-binding domain (ARDBD, aa 549-650) (Homo sapiens) (UniProt P10275); assay: footprint; details: footprint and gel shift; AR form not stated; MV number assigned to primers by order; purified recombinant protein; variant of PSA enhancer ARE V
T1 sequence (looked up): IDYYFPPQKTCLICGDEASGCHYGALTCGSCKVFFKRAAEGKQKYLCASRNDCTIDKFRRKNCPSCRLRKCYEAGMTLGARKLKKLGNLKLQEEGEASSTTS

[2] = biological target: T2, Progesterone receptor (UniProt P06401); assay: activity in cells; details: reporter with 496-bp enhancer; 10 nM progesterone; no significant effect; protein in cells; protein details: CMV-PR, BHK 21 cells
T2 sequence (looked up, limits assumed): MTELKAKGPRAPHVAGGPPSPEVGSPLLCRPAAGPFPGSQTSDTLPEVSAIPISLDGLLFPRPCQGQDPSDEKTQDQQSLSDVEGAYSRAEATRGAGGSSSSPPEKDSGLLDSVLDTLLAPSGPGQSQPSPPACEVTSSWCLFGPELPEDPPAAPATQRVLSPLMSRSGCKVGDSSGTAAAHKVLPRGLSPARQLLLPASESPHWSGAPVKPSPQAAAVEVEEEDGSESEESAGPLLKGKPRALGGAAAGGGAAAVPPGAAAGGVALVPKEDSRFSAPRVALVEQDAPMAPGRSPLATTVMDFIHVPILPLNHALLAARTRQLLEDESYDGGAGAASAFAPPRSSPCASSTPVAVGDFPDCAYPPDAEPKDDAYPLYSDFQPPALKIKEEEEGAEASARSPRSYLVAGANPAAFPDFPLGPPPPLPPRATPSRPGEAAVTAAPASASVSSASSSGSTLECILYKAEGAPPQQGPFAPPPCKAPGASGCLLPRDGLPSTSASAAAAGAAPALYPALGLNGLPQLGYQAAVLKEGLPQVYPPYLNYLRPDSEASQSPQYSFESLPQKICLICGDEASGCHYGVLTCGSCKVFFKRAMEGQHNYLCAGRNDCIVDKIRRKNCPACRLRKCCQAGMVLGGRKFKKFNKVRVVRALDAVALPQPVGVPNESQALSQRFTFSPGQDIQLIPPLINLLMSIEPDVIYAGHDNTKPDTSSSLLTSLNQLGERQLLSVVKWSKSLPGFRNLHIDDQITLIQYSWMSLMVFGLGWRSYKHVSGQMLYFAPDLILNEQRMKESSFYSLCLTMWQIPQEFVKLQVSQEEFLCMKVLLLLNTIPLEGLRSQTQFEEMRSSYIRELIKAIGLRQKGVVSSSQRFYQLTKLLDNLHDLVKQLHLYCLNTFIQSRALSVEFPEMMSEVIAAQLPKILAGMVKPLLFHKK

[3] = biological target: T3, Androgen receptor (UniProt P10275); assay: activity in cells; details: reporter with 496-bp enhancer; 1 nM R1881; protein in cells; protein details: CMV-AR, BHK 21 cells
T3 sequence (looked up, limits assumed): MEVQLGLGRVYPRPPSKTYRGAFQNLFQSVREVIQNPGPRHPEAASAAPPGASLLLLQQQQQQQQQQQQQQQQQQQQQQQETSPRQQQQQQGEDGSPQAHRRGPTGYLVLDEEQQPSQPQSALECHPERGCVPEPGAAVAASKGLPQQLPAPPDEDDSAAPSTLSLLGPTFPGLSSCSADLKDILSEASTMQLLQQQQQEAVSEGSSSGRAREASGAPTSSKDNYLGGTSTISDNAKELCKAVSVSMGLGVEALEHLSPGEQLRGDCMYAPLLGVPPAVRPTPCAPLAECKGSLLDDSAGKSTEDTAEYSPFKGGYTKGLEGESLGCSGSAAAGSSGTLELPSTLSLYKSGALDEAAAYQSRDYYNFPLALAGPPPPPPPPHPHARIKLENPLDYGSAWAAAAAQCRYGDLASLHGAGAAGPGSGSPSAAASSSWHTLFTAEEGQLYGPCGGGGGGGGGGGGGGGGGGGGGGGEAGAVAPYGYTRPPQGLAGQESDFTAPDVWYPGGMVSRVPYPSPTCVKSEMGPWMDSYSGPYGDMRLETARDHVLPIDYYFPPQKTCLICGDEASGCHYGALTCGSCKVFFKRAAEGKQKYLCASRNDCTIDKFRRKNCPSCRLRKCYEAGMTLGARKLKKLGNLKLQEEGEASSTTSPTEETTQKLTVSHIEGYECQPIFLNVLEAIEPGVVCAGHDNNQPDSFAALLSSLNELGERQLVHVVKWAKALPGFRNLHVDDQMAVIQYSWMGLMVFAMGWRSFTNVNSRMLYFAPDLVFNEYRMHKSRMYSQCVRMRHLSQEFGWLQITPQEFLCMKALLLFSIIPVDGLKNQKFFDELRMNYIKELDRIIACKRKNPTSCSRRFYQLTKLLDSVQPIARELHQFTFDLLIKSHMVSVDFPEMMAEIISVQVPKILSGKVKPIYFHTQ

Sequence	binding result [1]	activity on this sequence [2]	activity on this sequence [3]
ACTGTTCAAACTTGCAAACCTGC (double strand) [ARE V mutant MV1]	no binding	–	–
GGTGACCAGAGCAGTCTAGGTGGATGCTGTGCACACGGGGTTTGTGCCACTGGTGAGAAACCTGAGATTAGGAATCCTCAATCTTATACTGGGACAACTTGCAAACCTGCTCAGCCTTTGTCTCTGATGAAGATATTATCTTCATGATCTTGGATTGAAAACAGACCTACTCTGGAGGAACATATTGTATTGATTGTCCTTGACAGTAAACAAATCTGTTGTAAGAGACATTATCTTTATTATCTAGGACAGTAAGCAAGCCTGGATCTGAGAGAGATATCATCTTGCAAGGATGCCTGCTTTACAAACATCCTTGAAACAACAATCCAGAAAAAAAGTGTTGCTGTCTTTGCTCAGAAGACACACAGATACGTGACAGAACCATGGTAACC (double strand) [PSA enhancer fragment -4309 to -4011]	–	not active	active
